Test results taken from PubChem BioAssay AID624297 (National Center for Advancing Translational Sciences (NCATS), 2012).
Among all 340,000 compounds or so, about 6,200 (1.8%) were called active. Inconclusive results, whose numbers are uncertain, are shown with a selection of clear calls. Calls come from the whole dose curve; as a rule, active = well fitted activation curve with a large enough effect; inconclusive = small, poorly fitted or top-dose-only effect; inactive = no such curve, though single readings can be large or run the other way. Where the call is inconclusive, the potency comes from a doubtful curve fit.

Assay: A quantitative high throughput screen for small molecules that induce DNA re-replication in SW480 colon adenocarcinoma cells. For re-replication activation: % of control where 0% means no effect. Note: nearly all actives have a fitted effect of over 55% in size.
Settings: Hoechst DNA content imaging, 48 h; re-replication activation: at 46.1 µM (top of the series) unless noted
Summary of the method: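 Quantitative HTS format with DMSO vehicle controls; 48 hr drug incubation at 37 C, then 40 min Hoechst staining and scanning imager measurement at 405 nm excitation.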
Potency is the fitted concentration of half-maximal effect.

SMILES | Potency | re-replication activation
CC(NC(=O)C(=O)NN=C1CCCCCCCCCCC1)c1ccccc1 (stereo not drawn) | inactive | –
CCOC(=O)Cc1csc(NC(=O)c2ccc(N3CCOCC3)cc2[N+](=O)[O-])n1 | inconclusive: 3.66 µM [activator, single point] | –
COc1ccc(/C=C/c2c([N+](=O)[O-])c(=O)n(C)c(=O)n2C)c(OC)c1OC | inconclusive: 29.1 µM [activator, single point] | –
O=C(NN1c2ccccc2CCc2ccccc21)c1ccccc1Br | inactive | –
COc1cc(C2c3cc4c(cc3OC(NNC(N)=O)C2C)OCO4)cc(OC)c1OC (stereo not drawn) | active: 1.3 µM | –
COc1ccc2c(c1)C(=O)Cc1ccccc1O2 | inactive | –
O=S(=O)(c1ccc2ccccc2c1)n1cnc2ccccc21 | inconclusive: 29.1 µM [activator, single point] | –
CCOC(=O)C1CCCN(C(c2ccccn2)c2c(C)[nH]c3ccccc23)C1 (stereo not drawn) | inactive | –
COc1ccc(C(=O)Nc2ccc(C(=O)Nc3cccc(C)c3)cc2)cc1 | inconclusive: 6.51 µM [activator, partial curve] | –
O=C(Cc1ccc(Cl)cc1)NC1CCCCCC1 | inactive | –
Cc1cccc(NC(=O)CN(c2ccc(F)cc2)S(C)(=O)=O)c1 | inactive | –
O=C(O)c1ccc2c(=O)n3cc(C(=O)c4ccccc4O)cc(Cl)c3nc2c1 | inconclusive: 18.4 µM [activator, single point] | –
COc1ccccc1NC(=O)CSc1nc2ccccc2c(=O)n1CC1CCCO1 (stereo not drawn) | inactive | –
COc1ccccc1NC(=O)CSc1nnc(C2CCCCC2)n1C | inconclusive: 18.4 µM [activator, partial curve, poor fit] | –
CN=c1scc(-c2c[nH]c3ccccc23)n1C | inactive | –
CCOc1cc(CNc2ccccc2)cc(Br)c1OCc1ccccc1F | inactive | –
Cc1scc(C(=O)N/N=C/c2ccco2)c1C | inactive | –
O=C(Nc1ccc(N2CCN(C(=O)c3ccco3)CC2)cc1)c1ccc([N+](=O)[O-])cc1Cl | inconclusive: 29.1 µM [activator, single point] | –
O=C(CCS(=O)(=O)c1cccs1)Nc1ccc(C(=O)NC2CCN(Cc3ccccc3)CC2)cc1 | inactive | –
CCn1cc(CNC(=O)c2cc([N+](=O)[O-])c(C)c([N+](=O)[O-])c2)cn1 | inconclusive: 5.17 µM [activator, partial curve, poor fit] | –
Cc1onc(-c2ccccc2)c1C(=O)OCC(=O)N(C)c1ccccc1 | inactive | –
O=C(COc1ccccc1[N+](=O)[O-])Nc1cccc(Cl)c1N1CCOCC1 | inconclusive: 23.1 µM [activator, single point] | –
COC(=O)C1=C(CS(=O)(=O)c2cc(Cl)ccc2OC)NC(=O)NC1c1ccc(O)c(OC)c1 (stereo not drawn) | inactive | –
O=C(Nc1ccc2c(c1)OCO2)c1ccc(CO)cc1 | inconclusive: 10.3 µM [activator, partial curve, poor fit] | –
CCOC(=O)c1c(NC(=O)COC(=O)CCCOc2ccc(OC)cc2)sc(C(=O)N(C)C)c1C | inactive | –

SMILES | Potency | re-replication activation
Cc1ccc(N=Cc2cc(Br)cc(Cl)c2O)cc1 | inactive | –
COc1cccc(C(=O)Nc2ccccc2N2CCN(C(=O)c3ccccc3)CC2)c1 | inconclusive: 3.66 µM [activator, full curve, poor fit] | –
Cc1ccc(OCC(=O)N[C@@H](C)c2nnc3ccccn23)cc1C | inconclusive: 11.6 µM [activator, single point] | –
O=[N+]([O-])c1cc(Cl)cc(/C=N/Nc2nc3ccccc3s2)c1O | inconclusive: 29.1 µM [activator, single point] | –
Cc1cccc(NC(=O)c2cccc(NC(=O)Cc3cccs3)c2)c1 | inconclusive: 18.4 µM [activator, single point] | –
Cc1cc([N+](=O)[O-])ccc1N(C)C | inactive | –
CCCCC(=O)NC(=S)Nc1ccc(S(=O)(=O)N2CCCC2)cc1 | inactive | –
Nc1nc2nc(-c3ccc(Cl)cc3)cc(C(F)(F)F)n2n1 | active: 13 µM | –
O=C(Nc1cc(Cl)c(Cl)cc1Cl)c1cccnc1 | inconclusive: 1.46 µM [activator, partial curve, poor fit] | –
O=C(O)CCC(=O)Nc1sc2c(c1C(=O)NCc1ccccc1)CCCC2 | – | inconclusive: 30.2% [activator]
COc1cc(C2Nc3ccccc3C(=O)N2c2ccccc2)c(Br)cc1OCC(=O)O (stereo not drawn) | active: 23.1 µM | –
O=C(C1CCN(S(=O)(=O)c2cnc[nH]2)CC1)N1CCN(c2ccc([N+](=O)[O-])cc2)CC1 | inconclusive: 29.1 µM [activator, single point] | –
CC(C)[Si]1(C(C)C)OCC2OC(n3cnc4c(N)ncnc43)C(N)C2O[Si](C(C)C)(C(C)C)O1 (stereo not drawn) | inconclusive: 32.6 µM [activator, partial curve, poor fit] | –
CCN(CC)CCOC(=O)C1(c2ccc(OC)c(OC)c2)CCCC1 | inactive | –
O=C(Nc1nc2ccccc2s1)c1cc2c(s1)-c1ccccc1OC2 | active: 6.51 µM | –
CN(CC(=O)Nc1cc(S(=O)(=O)N2CCCC2)ccc1Cl)Cc1cccs1 | inconclusive: 29.1 µM [activator, single point] | –
NS(=O)(=O)c1cc(C(=O)N=Nc2c(O)[nH]c3ccccc23)ccc1Cl | inconclusive: 1.16 µM [activator, full curve, poor fit] | –
COc1ccc(NC(=O)CN(C)C(=O)c2cn(-c3ccccc3)nc2-c2ccc(Cl)cc2)cc1 | active: 23.1 µM | –
O=C(c1cccc(S(=O)(=O)N2CCCC2)c1)N1CCN(Cc2ccccc2)CC1 | inactive | –
CCOC(=O)c1c(NC(=O)C2CCCO2)sc(C(=O)OC(C)(C)C)c1C (stereo not drawn) | inconclusive: 1.84 µM [activator, partial curve, poor fit] | –
NS(=O)(=O)c1ccc(-n2nncc2C23CC4CC(CC(C4)C2)C3)cc1 | inconclusive: 8.2 µM [activator, partial curve, poor fit] | –
Cc1ccc(S(=O)(=O)NNc2ccccc2)c(C)c1 | inconclusive: 15.8 µM [activator, single point] | –
O=C1NC(=S)N/C1=C\c1ccc(N2CCOCC2)cc1 | active: 18.4 µM | –
COc1ccccc1OCC(O)Cn1c(=N)n(Cc2ccccc2)c2ccccc21 (stereo not drawn) | inconclusive: 20.6 µM [activator, single point] | –
Cc1nc(N)sc1C(=O)N/N=C/c1ccc([N+](=O)[O-])cc1 | inactive | –

SMILES | Potency | re-replication activation
COc1ccc(CC(=O)OCC(=O)Nc2ccc3c(c2)OCCO3)cc1OC | inconclusive: 6.51 µM [activator, partial curve, poor fit] | –
O=Nc1c2cc(-c3ccccc3)[nH]nc-2c2ccccc12 | inactive | –
CCOc1ccc(NC(=O)COC(=O)c2cc(S(=O)(=O)N3CCCC3)ccc2C)cc1 | inactive | –
CC(=O)N1CCCc2ccc(NS(=O)(=O)c3ccc(C)cc3)cc21 | inconclusive: 18.4 µM [activator, single point] | –
O=C(Nc1ccc(Cl)cc1)c1ccc(-c2ccccn2)s1 | inactive | –
S=C(Nc1ccc(Cl)cc1)NC1CCN(Cc2ccccc2)CC1 | inconclusive: 14.6 µM [activator, single point] | –
CCCCOCCCNC(=O)CN1C(=O)c2ccccc2C1=O | inactive | –
Cc1ccc(C(=O)NNC2=NC(C)(C)Cc3ccccc32)cc1 | inconclusive: 29.1 µM [activator, single point] | –
COc1ccc(Cl)cc1NC(=O)CN(C)CC(=O)Nc1c(C)n(C)n(-c2ccccc2)c1=O | inconclusive: 29.1 µM [activator, single point] | –
COc1ccc(NC(=O)/C=C2\SC(=O)NC2=O)cc1 | inactive | –
COCCNC(=O)C(c1ccc(F)cc1)N(CCOC)C(=O)CCC(=O)Nc1ccccn1 (stereo not drawn) | inconclusive: 32.6 µM [activator, single point] | –
CC(C)c1ccc(/C=C2\Oc3c(ccc(O)c3CN3CCN(C)CC3)C2=O)cc1 | inconclusive: 4.11 µM [activator, full curve, poor fit] | –
Cc1ccc(Cl)cc1NC(=O)CN1CCN(S(=O)(=O)N2CCC(C)CC2)CC1 | inconclusive: 23.1 µM [activator, partial curve, poor fit] | –
COc1cc(OC)c(OC)cc1/C=N/NC(=S)NCC1CCCO1 (stereo not drawn) | inconclusive: 20.6 µM [activator, single point] | –
CCCC[n+]1c2ccccc2cc2ccccc21 | inconclusive: 23.1 µM [activator, single point] | –
COc1cc([N+](=O)[O-])cc(/C=N/NC(=O)CSc2ccccn2)c1O | inconclusive: 0.58 µM [activator, partial curve, poor fit] | –
O=C(/C=C/c1cccc(F)c1)c1ccc(N2CCOCC2)cc1 | inconclusive: 29.1 µM [activator, single point] | –
CCCNc1nc(N)nc(-c2cc(Cl)ccc2OC)n1 | inactive | –
O=C(CNC(=O)c1nn(Cc2ccccc2)c(=O)c2ccccc12)Nc1ccc(F)c(F)c1F | inconclusive: 18.4 µM [activator, partial curve, poor fit] | –
CN(C)CCCN(C(=O)CCc1ccccc1)c1nc2c(F)cccc2s1 | inactive | –
COc1cc(/C=N/NC(=O)c2cc(-c3c(C)nn(-c4ccccc4)c3C)n[nH]2)ccc1O | inconclusive: 29.1 µM [activator, single point] | –
CN(C)CC1CCCCC1OC(=O)c1ccc(Cl)cc1Cl (stereo not drawn) | inconclusive: 25.9 µM [activator, partial curve, poor fit] | –
Cc1c(Cl)ccc(S(=O)(=O)N2CCN=C2c2ccccc2)c1Cl | inactive | –

2 entries from above, as tab-separated lines:
SMILES	Potency	re-replication activation
CC(NC(=O)C(=O)NN=C1CCCCCCCCCCC1)c1ccccc1 (stereo not drawn)	inactive	–
COc1ccccc1OCC(O)Cn1c(=N)n(Cc2ccccc2)c2ccccc21 (stereo not drawn)	inconclusive: 20.6 µM [activator, single point]	–
